From the supplement of paper PMC10849652
The other results are listed elsewhere or left out.

Sequences of proteins named here, by UniProt entry; tags and fusion partners are left off. A change or cut given only in a name is not applied to a line headed by its entry.
UniProt Q9P0K7: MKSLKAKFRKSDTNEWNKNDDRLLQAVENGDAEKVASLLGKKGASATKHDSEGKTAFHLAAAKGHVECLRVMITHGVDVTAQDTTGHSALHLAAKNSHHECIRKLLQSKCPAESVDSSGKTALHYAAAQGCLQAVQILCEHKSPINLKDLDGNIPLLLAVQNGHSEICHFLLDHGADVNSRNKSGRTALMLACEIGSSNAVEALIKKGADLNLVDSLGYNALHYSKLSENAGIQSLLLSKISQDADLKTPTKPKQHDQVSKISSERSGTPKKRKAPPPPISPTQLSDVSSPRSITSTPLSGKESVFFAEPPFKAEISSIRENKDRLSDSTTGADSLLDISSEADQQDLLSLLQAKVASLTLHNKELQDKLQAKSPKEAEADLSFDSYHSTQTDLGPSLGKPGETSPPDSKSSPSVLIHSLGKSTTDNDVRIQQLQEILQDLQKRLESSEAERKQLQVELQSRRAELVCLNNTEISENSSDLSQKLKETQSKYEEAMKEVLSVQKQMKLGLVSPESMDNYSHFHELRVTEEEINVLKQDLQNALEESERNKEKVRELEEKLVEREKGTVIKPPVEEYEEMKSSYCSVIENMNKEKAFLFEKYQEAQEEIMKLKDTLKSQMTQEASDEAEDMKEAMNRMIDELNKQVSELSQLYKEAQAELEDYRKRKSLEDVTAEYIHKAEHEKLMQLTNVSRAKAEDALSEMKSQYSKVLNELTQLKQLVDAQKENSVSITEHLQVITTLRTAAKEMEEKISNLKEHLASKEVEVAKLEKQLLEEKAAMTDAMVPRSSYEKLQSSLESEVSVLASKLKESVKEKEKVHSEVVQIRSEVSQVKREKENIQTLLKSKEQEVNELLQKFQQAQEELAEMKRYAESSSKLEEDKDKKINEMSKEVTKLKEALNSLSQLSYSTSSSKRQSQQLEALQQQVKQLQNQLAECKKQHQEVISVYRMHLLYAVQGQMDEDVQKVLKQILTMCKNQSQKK
UniProt Q13905: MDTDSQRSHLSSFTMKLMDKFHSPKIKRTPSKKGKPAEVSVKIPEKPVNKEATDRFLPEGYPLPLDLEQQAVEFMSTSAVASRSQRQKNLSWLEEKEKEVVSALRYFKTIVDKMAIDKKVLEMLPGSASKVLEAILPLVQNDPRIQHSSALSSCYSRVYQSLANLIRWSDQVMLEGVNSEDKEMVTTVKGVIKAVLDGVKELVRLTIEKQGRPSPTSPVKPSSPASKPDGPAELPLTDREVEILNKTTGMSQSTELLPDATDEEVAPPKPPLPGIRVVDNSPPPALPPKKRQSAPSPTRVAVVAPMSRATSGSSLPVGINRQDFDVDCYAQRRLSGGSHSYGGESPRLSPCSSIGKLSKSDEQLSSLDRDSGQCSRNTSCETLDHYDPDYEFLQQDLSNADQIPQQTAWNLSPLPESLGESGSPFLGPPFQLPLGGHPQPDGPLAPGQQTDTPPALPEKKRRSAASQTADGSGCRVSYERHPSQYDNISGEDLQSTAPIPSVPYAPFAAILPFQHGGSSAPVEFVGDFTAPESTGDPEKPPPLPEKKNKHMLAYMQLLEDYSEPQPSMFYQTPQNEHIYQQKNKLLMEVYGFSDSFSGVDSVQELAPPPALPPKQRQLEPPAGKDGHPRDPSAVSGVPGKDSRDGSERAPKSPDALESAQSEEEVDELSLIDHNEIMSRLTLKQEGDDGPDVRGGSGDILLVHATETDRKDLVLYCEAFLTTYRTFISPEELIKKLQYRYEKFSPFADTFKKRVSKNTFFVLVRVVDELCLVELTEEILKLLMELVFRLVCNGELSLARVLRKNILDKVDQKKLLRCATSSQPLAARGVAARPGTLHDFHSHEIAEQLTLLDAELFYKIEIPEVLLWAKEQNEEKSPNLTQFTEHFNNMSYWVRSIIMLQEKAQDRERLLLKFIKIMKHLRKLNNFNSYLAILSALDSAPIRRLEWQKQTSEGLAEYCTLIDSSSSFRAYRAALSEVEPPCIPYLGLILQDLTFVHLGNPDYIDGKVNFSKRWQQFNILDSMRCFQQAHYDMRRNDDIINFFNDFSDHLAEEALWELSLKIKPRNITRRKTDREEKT
UniProt P61018: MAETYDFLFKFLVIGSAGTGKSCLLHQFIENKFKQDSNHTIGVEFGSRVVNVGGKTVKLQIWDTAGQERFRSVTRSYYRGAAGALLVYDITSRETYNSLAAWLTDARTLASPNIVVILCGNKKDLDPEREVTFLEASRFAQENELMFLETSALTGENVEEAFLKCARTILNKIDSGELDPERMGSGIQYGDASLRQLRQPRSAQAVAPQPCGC
UniProt Q6VN20, whole entry, looked up: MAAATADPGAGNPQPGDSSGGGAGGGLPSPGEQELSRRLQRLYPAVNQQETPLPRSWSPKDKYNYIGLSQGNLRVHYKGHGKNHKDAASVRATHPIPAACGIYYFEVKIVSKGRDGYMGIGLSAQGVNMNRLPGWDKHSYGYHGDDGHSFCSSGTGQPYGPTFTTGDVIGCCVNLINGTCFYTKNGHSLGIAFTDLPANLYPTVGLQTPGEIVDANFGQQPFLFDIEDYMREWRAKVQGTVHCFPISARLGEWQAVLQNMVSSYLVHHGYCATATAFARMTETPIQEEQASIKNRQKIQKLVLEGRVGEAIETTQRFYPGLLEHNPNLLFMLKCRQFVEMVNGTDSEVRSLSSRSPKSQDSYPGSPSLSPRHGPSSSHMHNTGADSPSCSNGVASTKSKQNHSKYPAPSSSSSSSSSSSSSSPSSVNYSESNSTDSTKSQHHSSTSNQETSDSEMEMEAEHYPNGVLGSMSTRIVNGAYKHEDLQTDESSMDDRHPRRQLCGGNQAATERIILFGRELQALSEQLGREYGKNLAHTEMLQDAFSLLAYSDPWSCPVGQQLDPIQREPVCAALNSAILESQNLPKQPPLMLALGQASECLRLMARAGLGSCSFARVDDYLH
UniProt P62491: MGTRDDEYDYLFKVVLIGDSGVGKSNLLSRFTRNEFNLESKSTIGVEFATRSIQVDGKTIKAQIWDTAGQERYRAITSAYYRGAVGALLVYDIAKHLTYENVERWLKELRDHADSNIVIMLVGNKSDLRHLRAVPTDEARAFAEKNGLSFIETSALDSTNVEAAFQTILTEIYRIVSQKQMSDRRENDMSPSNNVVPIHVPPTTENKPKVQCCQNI
UniProt Q96I23: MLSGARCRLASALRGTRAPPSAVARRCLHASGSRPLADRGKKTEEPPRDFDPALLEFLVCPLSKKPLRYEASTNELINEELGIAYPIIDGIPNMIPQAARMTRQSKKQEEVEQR
UniProt Q7Z6M1: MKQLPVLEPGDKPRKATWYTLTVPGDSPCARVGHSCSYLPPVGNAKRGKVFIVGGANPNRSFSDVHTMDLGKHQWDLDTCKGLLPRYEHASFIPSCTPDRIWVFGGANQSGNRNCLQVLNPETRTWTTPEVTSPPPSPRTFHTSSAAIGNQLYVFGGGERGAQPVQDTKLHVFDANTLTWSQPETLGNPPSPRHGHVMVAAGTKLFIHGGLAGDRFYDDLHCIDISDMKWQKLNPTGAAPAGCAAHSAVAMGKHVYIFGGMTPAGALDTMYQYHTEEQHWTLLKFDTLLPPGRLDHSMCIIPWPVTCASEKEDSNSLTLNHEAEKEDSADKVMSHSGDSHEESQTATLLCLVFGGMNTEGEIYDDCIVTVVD
UniProt Q6GYQ0: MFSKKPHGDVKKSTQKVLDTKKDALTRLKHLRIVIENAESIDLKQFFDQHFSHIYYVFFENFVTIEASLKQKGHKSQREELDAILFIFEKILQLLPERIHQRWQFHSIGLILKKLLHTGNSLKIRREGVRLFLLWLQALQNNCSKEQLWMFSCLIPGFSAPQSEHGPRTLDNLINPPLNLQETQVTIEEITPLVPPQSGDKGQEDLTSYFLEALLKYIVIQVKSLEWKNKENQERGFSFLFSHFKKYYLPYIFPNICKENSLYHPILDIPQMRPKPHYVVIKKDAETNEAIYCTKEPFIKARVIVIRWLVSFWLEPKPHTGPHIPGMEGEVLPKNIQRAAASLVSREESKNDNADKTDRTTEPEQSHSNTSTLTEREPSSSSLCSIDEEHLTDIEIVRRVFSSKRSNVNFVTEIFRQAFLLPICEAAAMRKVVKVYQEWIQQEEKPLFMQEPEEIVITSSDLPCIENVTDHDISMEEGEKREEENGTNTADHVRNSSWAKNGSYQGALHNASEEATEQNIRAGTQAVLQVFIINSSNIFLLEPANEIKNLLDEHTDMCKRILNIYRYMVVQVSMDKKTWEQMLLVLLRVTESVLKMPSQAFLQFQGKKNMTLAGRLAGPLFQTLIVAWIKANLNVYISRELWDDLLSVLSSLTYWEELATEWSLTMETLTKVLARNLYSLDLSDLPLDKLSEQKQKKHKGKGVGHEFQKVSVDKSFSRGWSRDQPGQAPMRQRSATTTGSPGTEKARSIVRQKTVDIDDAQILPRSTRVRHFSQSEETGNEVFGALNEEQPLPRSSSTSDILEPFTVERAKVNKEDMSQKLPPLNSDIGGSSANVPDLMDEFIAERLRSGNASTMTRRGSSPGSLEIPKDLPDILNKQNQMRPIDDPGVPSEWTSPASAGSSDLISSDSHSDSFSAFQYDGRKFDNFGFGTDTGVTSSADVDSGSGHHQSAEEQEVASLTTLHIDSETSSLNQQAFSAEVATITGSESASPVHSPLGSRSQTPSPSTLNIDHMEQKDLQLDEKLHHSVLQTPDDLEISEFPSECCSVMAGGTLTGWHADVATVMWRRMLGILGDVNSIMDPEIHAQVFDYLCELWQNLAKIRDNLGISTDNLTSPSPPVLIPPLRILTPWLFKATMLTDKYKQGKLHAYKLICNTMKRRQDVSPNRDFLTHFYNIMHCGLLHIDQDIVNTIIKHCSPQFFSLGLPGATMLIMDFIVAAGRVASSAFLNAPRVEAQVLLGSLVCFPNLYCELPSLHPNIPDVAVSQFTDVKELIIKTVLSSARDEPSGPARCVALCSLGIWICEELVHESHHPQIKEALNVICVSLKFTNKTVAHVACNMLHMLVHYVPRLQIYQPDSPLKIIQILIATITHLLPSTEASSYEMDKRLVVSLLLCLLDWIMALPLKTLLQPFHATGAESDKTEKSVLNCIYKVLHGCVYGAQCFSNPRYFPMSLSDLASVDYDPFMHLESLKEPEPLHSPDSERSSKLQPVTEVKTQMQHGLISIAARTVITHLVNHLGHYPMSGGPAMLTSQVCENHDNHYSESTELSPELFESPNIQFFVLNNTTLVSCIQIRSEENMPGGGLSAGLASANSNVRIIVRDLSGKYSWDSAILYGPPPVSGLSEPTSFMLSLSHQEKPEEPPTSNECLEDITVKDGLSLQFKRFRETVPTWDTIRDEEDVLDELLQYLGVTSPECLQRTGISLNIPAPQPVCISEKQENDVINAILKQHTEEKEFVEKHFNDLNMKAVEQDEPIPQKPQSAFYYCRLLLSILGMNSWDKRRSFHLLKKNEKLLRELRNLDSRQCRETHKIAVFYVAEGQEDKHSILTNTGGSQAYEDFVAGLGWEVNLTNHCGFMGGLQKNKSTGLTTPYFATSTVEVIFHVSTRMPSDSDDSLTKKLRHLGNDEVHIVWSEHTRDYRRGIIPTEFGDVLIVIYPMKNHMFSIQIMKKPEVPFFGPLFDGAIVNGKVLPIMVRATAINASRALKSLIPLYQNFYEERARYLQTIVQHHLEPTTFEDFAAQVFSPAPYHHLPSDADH
UniProt P47897: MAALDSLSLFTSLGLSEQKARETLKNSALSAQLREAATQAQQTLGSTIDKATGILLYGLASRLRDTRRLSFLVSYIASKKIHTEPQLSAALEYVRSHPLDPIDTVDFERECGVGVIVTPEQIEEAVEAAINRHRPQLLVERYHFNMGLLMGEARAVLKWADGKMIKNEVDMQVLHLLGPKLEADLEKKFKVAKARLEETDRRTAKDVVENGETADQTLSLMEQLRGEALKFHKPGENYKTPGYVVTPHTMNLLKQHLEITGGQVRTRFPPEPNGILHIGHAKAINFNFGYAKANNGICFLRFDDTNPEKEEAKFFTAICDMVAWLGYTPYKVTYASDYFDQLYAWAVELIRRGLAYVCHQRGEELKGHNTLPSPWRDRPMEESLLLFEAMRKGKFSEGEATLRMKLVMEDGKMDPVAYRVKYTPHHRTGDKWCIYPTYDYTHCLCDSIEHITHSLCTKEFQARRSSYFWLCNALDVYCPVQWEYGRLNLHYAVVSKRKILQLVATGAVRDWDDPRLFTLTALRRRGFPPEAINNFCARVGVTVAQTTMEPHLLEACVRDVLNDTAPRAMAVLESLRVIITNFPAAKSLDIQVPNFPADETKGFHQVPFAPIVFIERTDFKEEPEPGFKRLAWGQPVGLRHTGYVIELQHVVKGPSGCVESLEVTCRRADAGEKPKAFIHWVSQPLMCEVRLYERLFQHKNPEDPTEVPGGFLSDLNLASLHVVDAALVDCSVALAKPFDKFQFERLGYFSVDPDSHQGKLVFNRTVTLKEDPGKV

How the values were obtained:
Assay in all cases: log2 fold change, soluble protein after heating vs DMSO (PISA); higher = thermal stabilisation; K562 lysate, 10 uM; active = over 0.2 and 3.5 SD of the protein, either way, in both replicates (recomputed)
alvocidib = compound: CN1CC[C@H](c2c(O)cc(O)c3c(=O)cc(-c4ccccc4Cl)oc23)[C@H](O)C1 [alvocidib]
Method in brief: (§1)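 Values give the log-two fold change in thermal stability against solvent controls, from duplicates. Crude K562 extract at 1 mg/mL protein, made by dounce homogenisation in PBS pH 7.4 with 1 mM MgCl2, was treated with 10 μM compound for 30 min. After 3 min heating across 48°C-58°C, aliquots were pooled, adjusted to 0.5% NP-40 at 4°C and centrifuged at 21,000xg for 90 min. The supernatant was measured by TMTpro 16plex LC-MS/MS with channel sums equalised.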

Tubastatin A = compound: CN1CCc2c(c3ccccc3n2Cc2ccc(C(=O)NO)cc2)C1 [Tubastatin A]
Method in brief: as §1

[1] = compound: CNC(=O)C1=CC=CC=C1NC2=NC(=NC=C2Cl)NC3=C(C=C(C=C3)N4CCOCC4)OC
Method in brief: as §1

defactinib = compound: CNC(=O)c1ccc(Nc2ncc(C(F)(F)F)c(NCc3nccnc3N(C)S(C)(=O)=O)n2)cc1 [defactinib]
Method in brief: as §1

[2] = compound: CNc1nc(-c2ccc3c(N)n[nH]c3c2)cc(N2C[C@@H](C(=O)NC3CCCCC3)CC[C@H]2C)n1
Method in brief: as §1

encorafenib = compound: COC(=O)N[C@@H](C)CNc1nccc(-c2cn(C(C)C)nc2-c2cc(Cl)cc(NS(C)(=O)=O)c2F)n1 [encorafenib]
Method in brief: as §1

[3] = compound: COC(=O)[C@H](CCSC)NC(=O)C1=C(C=C(C=C1)NC[C@H](CS)N)C2=CC=CC=C2
Method in brief: as §1

alisertib = compound: COc1cc(Nc2ncc3c(n2)-c2ccc(Cl)cc2C(c2c(F)cccc2OC)=NC3)ccc1C(=O)O [alisertib]
Method in brief: as §1

[4] = compound: COc1cc2nc(-c3cc(F)ccc3O)nc(N[C@@H]3CNC[C@H]3C(C)(C)O)c2cc1OC
Method in brief: as §1

gefitinib = compound: COc1cc2ncnc(Nc3ccc(F)c(Cl)c3)c2cc1OCCCN1CCOCC1 [gefitinib]
Method in brief: as §1

lapatinib = compound: CS(=O)(=O)CCNCc1ccc(-c2ccc3ncnc(Nc4ccc(OCc5cccc(F)c5)c(Cl)c4)c3c2)o1 [lapatinib]
Method in brief: as §1

pictilisib = compound: CS(=O)(=O)N1CCN(Cc2cc3nc(-c4cccc5[nH]ncc45)nc(N4CCOCC4)c3s2)CC1 [pictilisib]
Method in brief: as §1

crizotinib = compound: C[C@@H](Oc1cc(-c2cnn(C3CCNCC3)c2)cnc1N)c1c(Cl)ccc(F)c1Cl [crizotinib]
Method in brief: as §1

[5] = compound: C[C@H](C1=CC=C(C=C1)C(=O)NC2=C3C=CNC3=NC=C2)N
Method in brief: as §1

duvelisib = compound: C[C@H](Nc1ncnc2nc[nH]c12)c1cc2cccc(Cl)c2c(=O)n1-c1ccccc1 [duvelisib]
Method in brief: as §1

gandotinib = compound: Cc1cc(Nc2cc(CN3CCOCC3)c3nc(C)c(Cc4ccc(Cl)cc4F)n3n2)n[nH]1 [gandotinib]
Method in brief: as §1

tozasertib = compound: Cc1cc(Nc2cc(N3CCN(C)CC3)nc(Sc3ccc(NC(=O)C4CC4)cc3)n2)n[nH]1 [tozasertib]
Method in brief: as §1

doramapimod = compound: Cc1ccc(-n2nc(C(C)(C)C)cc2NC(=O)Nc2ccc(OCCN3CCOCC3)c3ccccc23)cc1 [doramapimod]
Method in brief: as §1

bafetinib = compound: Cc1ccc(NC(=O)c2ccc(CN3CC[C@H](N(C)C)C3)c(C(F)(F)F)c2)cc1Nc1nccc(-c2cncnc2)n1 [bafetinib]
Method in brief: as §1

[6] = compound: Cc1cccc(CC(=O)N2CCc3c2ccc(-c2cn(C)c4ncnc(N)c24)c3F)n1
Method in brief: as §1

Measured: log2 fold change

RAI14 isoform 2 (UniProt Q9P0K7)
inactive: alvocidib 0.019 | Tubastatin A -0.08 | [1] 0.003 | defactinib 0.031 | [2] 0.077 | encorafenib 0.012 | [3] 0.083 | alisertib -0.018 | [4] 0 | gefitinib 0.029 | lapatinib -0.026 | pictilisib -0.007 | crizotinib -0.014 | [5] 0 | duvelisib -0.025 | gandotinib -0.051 | tozasertib 0.009 | doramapimod 0 | bafetinib -0.029 | [6] 0.002

RAD23B (UniProt P54727)
inactive: alvocidib -0.02 | Tubastatin A 0.047 | [1] -0.031 | defactinib -0.016 | [2] -0.013 | encorafenib -0.022 | [3] -0.019 | alisertib -0.011 | [4] 0.012 | gefitinib 0.028 | lapatinib 0.013 | pictilisib 0.02 | crizotinib -0.01 | [5] 0.013 | duvelisib 0.056 | gandotinib -0.001 | tozasertib 0.021 | doramapimod 0.005 | bafetinib 0.047 | [6] 0.011

QPCTL (UniProt Q9NXS2)
inactive: alvocidib -0.018 | Tubastatin A -0.037 | [1] 0 | defactinib 0.082 | [2] 0.024 | encorafenib 0.023 | [3] 0.075 | alisertib 0.117 | [4] -0.066 | gefitinib -0.007 | lapatinib -0.019 | pictilisib 0 | crizotinib -0.163 | [5] -0.013 | duvelisib 0.038 | gandotinib -0.023 | tozasertib -0.019 | doramapimod -0.029 | bafetinib -0.051 | [6] 0.059

RAN (UniProt P62826)
inactive: alvocidib 0.019 | Tubastatin A 0.052 | [1] -0.015 | defactinib -0.016 | [2] -0.031 | encorafenib -0.045 | [3] -0.035 | alisertib 0.011 | [4] 0.005 | gefitinib 0.003 | lapatinib -0.027 | pictilisib 0.025 | crizotinib 0.018 | [5] 0.041 | duvelisib 0.015 | gandotinib -0.039 | tozasertib 0.023 | doramapimod -0.028 | bafetinib 0.122 | [6] -0.099

RAPGEF1 isoform 3 (UniProt Q13905)
inactive: alvocidib -0.049 | Tubastatin A 0.075 | [1] 0.107 | defactinib -0.057 | [2] 0.059 | encorafenib 0.082 | [3] 0.161 | alisertib -0.025 | [4] 0.039 | gefitinib 0 | lapatinib -0.006 | pictilisib 0.002 | crizotinib -0.002 | [5] -0.072 | duvelisib -0.017 | gandotinib 0.082 | tozasertib 0.064 | doramapimod -0.021 | bafetinib -0.274 | [6] -0.022

RAD23A (UniProt P54725)
inactive: alvocidib 0.007 | Tubastatin A 0.024 | [1] -0.048 | defactinib -0.04 | [2] -0.01 | encorafenib -0.048 | [3] -0.049 | alisertib 0.018 | [4] -0.007 | gefitinib 0.014 | lapatinib 0.033 | pictilisib 0 | crizotinib 0.008 | [5] -0.026 | duvelisib -0.005 | gandotinib 0.016 | tozasertib 0.028 | doramapimod 0.068 | bafetinib 0.019 | [6] -0.017

RAB6A isoform 4 (UniProt P20340)
inactive: alvocidib -0.005 | Tubastatin A 0.034 | [1] 0.05 | defactinib 0.005 | [2] 0.027 | encorafenib 0.078 | [3] -0.046 | alisertib 0.014 | [4] 0.029 | gefitinib -0.057 | lapatinib 0.067 | pictilisib -0.027 | crizotinib 0.044 | [5] -0.043 | duvelisib -0.004 | gandotinib 0.047 | tozasertib 0.01 | doramapimod -0.003 | bafetinib 0.009 | [6] -0.002

RAB4B isoform 2 (UniProt P61018)
inactive: alvocidib -0.038 | Tubastatin A 0.015 | [1] -0.025 | defactinib -0.04 | [2] -0.042 | encorafenib 0.05 | [3] -0.01 | alisertib 0.042 | [4] 0.071 | gefitinib 0.03 | lapatinib -0.057 | pictilisib -0.017 | crizotinib 0.052 | [5] -0.033 | duvelisib 0.02 | gandotinib -0.036 | tozasertib 0.05 | doramapimod 0.001 | bafetinib 0.007 | [6] 0.018

RACK1 (UniProt P63244)
inactive: alvocidib 0.048 | Tubastatin A -0.059 | [1] -0.01 | defactinib -0.034 | [2] -0.06 | encorafenib -0.004 | [3] 0.037 | alisertib 0.015 | [4] -0.004 | gefitinib -0.013 | lapatinib -0.009 | pictilisib 0.002 | crizotinib -0.007 | [5] 0.038 | duvelisib -0.005 | gandotinib -0.036 | tozasertib -0.016 | doramapimod 0.017 | bafetinib 0.038 | [6] -0.031

RANBP10 (UniProt Q6VN20)
inactive: alvocidib 0.031 | Tubastatin A -0.01 | [1] 0.034 | defactinib 0.057 | [2] 0.019 | encorafenib -0.023 | [3] 0.057 | alisertib 0.01 | [4] -0.033 | gefitinib -0.062 | lapatinib 0.05 | pictilisib -0.049 | crizotinib -0.03 | [5] -0.019 | duvelisib -0.01 | gandotinib -0.009 | tozasertib 0.046 | doramapimod -0.022 | bafetinib -0.132 | [6] 0.022

RAB11A (UniProt P62491)
inactive: alvocidib 0.084 | Tubastatin A 0.045 | [1] 0.009 | defactinib 0.024 | [2] 0.085 | encorafenib -0.014 | [3] 0.018 | alisertib -0.03 | [4] 0.004 | gefitinib -0.052 | lapatinib 0.075 | pictilisib -0.076 | crizotinib -0.024 | [5] 0.119 | duvelisib -0.011 | gandotinib -0.132 | tozasertib -0.013 | doramapimod -0.024 | bafetinib 0.065 | [6] -0.039

RAB1A (UniProt P62820)
inactive: alvocidib -0.001 | Tubastatin A 0.01 | [1] -0.002 | defactinib 0 | [2] -0.033 | encorafenib 0.05 | [3] -0.044 | alisertib 0.04 | [4] 0.016 | gefitinib 0.014 | lapatinib -0.003 | pictilisib -0.033 | crizotinib 0.034 | [5] 0.032 | duvelisib 0 | gandotinib -0.038 | tozasertib 0.017 | doramapimod 0.012 | bafetinib 0.018 | [6] -0.01

PYURF (UniProt Q96I23)
inactive: alvocidib 0.077 | Tubastatin A 0.041 | [1] 0.073 | defactinib 0.181 | [2] 0.019 | encorafenib 0.113 | [3] 0.027 | alisertib 0.007 | [4] -0.007 | gefitinib -0.038 | lapatinib 0.036 | pictilisib -0.066 | crizotinib 0.016 | [5] 0.01 | duvelisib 0.087 | gandotinib -0.015 | tozasertib -0.048 | doramapimod 0.011 | bafetinib 0.091 | [6] 0.015

RABEPK (UniProt Q7Z6M1)
inactive: alvocidib 0.03 | Tubastatin A -0.048 | [1] 0.004 | defactinib 0.014 | [2] -0.025 | encorafenib 0.004 | [3] 0.032 | alisertib 0.002 | [4] 0 | gefitinib 0.01 | lapatinib 0.003 | pictilisib -0.016 | crizotinib -0.008 | [5] -0.069 | duvelisib 0.018 | gandotinib 0.007 | tozasertib -0.033 | doramapimod 0.005 | bafetinib 0.024 | [6] 0.04

RALGAPA1 isoform 6 (UniProt Q6GYQ0)
inactive: alvocidib -0.102 | Tubastatin A 0.033 | [1] 0.007 | defactinib 0.069 | [2] 0.003 | encorafenib 0.016 | [3] 0.094 | alisertib -0.029 | [4] 0.047 | gefitinib 0.056 | lapatinib -0.075 | pictilisib -0.157 | crizotinib 0.036 | duvelisib 0.074 | gandotinib 0.257 | tozasertib -0.006 | doramapimod 0.062 | bafetinib -0.026 | [6] 0.321
active: [5] -0.28

Two successive entries out of the list so far:
RAI14 isoform 2 (UniProt Q9P0K7)
inactive: alvocidib 0.019 | Tubastatin A -0.08 | [1] 0.003 | defactinib 0.031 | [2] 0.077 | encorafenib 0.012 | [3] 0.083 | alisertib -0.018 | [4] 0 | gefitinib 0.029 | lapatinib -0.026 | pictilisib -0.007 | crizotinib -0.014 | [5] 0 | duvelisib -0.025 | gandotinib -0.051 | tozasertib 0.009 | doramapimod 0 | bafetinib -0.029 | [6] 0.002

RAD23B (UniProt P54727)
inactive: alvocidib -0.02 | Tubastatin A 0.047 | [1] -0.031 | defactinib -0.016 | [2] -0.013 | encorafenib -0.022 | [3] -0.019 | alisertib -0.011 | [4] 0.012 | gefitinib 0.028 | lapatinib 0.013 | pictilisib 0.02 | crizotinib -0.01 | [5] 0.013 | duvelisib 0.056 | gandotinib -0.001 | tozasertib 0.021 | doramapimod 0.005 | bafetinib 0.047 | [6] 0.011

Going on with the list.

QARS (UniProt P47897)
inactive: alvocidib 0.029 | Tubastatin A -0.064 | [1] -0.016 | defactinib 0.043 | [2] -0.01 | encorafenib 0 | [3] 0.102 | alisertib -0.006 | [4] -0.001 | gefitinib -0.014 | lapatinib -0.022 | pictilisib -0.003 | crizotinib -0.036 | [5] 0.03 | duvelisib 0.01 | gandotinib -0.14 | tozasertib -0.032 | doramapimod 0.04 | bafetinib -0.053 | [6] -0.029
